{"sequences": {"note": "Protein sequences, listed by entry. Tags and fused reporters are not part of them. Lines headed by an entry give the natural chain unless they say otherwise; changes in a name come on top.", "UniProt Q9NY27": "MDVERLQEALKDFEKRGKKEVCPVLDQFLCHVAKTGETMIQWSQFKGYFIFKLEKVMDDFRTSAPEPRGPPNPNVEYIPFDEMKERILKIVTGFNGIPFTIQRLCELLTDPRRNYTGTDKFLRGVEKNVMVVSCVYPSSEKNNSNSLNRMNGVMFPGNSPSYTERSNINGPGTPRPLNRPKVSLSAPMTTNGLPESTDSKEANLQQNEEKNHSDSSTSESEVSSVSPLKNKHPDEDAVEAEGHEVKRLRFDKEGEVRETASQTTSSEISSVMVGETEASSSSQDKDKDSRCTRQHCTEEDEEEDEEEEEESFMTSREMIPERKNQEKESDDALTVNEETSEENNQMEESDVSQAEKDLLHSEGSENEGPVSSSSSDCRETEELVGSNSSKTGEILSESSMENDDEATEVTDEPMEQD", "UniProt Q9NV35": "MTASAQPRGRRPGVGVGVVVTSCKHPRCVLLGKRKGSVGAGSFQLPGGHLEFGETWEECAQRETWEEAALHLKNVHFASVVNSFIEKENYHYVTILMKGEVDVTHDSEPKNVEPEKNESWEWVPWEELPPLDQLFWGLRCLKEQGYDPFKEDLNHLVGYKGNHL", "UniProt Q9NVM4": "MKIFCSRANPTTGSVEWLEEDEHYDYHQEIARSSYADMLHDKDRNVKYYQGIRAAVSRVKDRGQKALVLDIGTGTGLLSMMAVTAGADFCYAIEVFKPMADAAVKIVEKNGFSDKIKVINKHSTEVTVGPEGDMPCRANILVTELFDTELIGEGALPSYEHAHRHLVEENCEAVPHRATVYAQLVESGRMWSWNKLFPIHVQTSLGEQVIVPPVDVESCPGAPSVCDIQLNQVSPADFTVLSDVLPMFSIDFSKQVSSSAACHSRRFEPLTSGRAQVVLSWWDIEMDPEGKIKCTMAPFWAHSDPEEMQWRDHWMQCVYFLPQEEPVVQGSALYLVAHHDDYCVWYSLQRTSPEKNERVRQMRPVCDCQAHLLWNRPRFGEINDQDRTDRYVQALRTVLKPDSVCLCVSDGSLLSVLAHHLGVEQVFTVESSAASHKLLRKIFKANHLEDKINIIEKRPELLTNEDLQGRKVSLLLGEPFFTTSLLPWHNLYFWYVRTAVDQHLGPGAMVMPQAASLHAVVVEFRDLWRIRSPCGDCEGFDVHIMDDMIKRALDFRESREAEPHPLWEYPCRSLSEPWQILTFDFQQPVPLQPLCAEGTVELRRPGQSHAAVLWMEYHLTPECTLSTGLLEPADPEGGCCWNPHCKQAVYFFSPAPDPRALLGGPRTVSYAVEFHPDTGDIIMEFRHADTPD", "UniProt Q9UFN0": "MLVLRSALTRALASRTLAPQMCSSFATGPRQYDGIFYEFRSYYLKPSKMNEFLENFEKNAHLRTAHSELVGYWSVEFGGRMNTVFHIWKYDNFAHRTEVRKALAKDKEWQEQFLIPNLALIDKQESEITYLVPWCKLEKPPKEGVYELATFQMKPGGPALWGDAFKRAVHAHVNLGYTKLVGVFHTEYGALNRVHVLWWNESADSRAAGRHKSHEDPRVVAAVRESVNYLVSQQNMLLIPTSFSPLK", "UniProt Q9NVP2, whole entry": "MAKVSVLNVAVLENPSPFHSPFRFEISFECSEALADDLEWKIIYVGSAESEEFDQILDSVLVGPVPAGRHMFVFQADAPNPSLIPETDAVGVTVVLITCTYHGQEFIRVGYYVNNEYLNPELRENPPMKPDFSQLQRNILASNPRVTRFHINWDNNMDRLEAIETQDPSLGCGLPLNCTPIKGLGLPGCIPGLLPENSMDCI"}, "source": "the supplement of paper PMC6411743", "compound": "Nc1nc2c(ncn2[C@@H]2O[C@H](COP(=O)(O)OP(=O)(O)OP(=O)(O)O)[C@@H](O)[C@H]2O)c(=O)[nH]1 [guanosine triphosphate]", "assay": "NP40-soluble protein abundance relative to vehicle (solubility fold change) (ratio); higher = more soluble protein in presence of GTP", "method": "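Solubility proteome profiling in Jurkat crude lysate. Lysate was treated with Mg-GTP (0.1-10 mM) for 10 min at room temperature and 3 min at 37 °C, then solubilised with 0.8% NP40 and benzonase, followed by ultracentrifugation. Proteins were quantified by TMT10 LC-MS/MS; the value is the NP40-soluble abundance relative to the NP40-processed vehicle, from 3 independent experiments.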", "note": "± gives the standard deviation of the averaged measurements. This is one part of the list."}
{"target": "PPP4R2 (UniProt Q9NY27)", "values": [{"measurement": "NP40-soluble protein abundance", "setting": "concentration: 0.1mM", "value": "0.942 ± 0.048"}, {"measurement": "NP40-soluble protein abundance", "setting": "concentration: 0.5mM", "value": "0.949 ± 0.059"}, {"measurement": "NP40-soluble protein abundance", "setting": "concentration: 1mM", "value": "0.966 ± 0.051"}, {"measurement": "NP40-soluble protein abundance", "setting": "concentration: 2mM", "value": "0.946 ± 0.052"}, {"measurement": "NP40-soluble protein abundance", "setting": "concentration: 4mM", "value": "0.955 ± 0.073"}, {"measurement": "NP40-soluble protein abundance", "setting": "concentration: 6mM", "value": "0.934 ± 0.045"}, {"measurement": "NP40-soluble protein abundance", "setting": "concentration: 8mM", "value": "0.964 ± 0.032"}, {"measurement": "NP40-soluble protein abundance", "setting": "concentration: 10mM", "value": "0.96 ± 0.046"}]}
{"target": "NUDT15 (UniProt Q9NV35)", "values": [{"measurement": "NP40-soluble protein abundance", "setting": "concentration: 0.1mM", "value": "0.931 ± 0.046"}, {"measurement": "NP40-soluble protein abundance", "setting": "concentration: 0.5mM", "value": "0.917 ± 0.07"}, {"measurement": "NP40-soluble protein abundance", "setting": "concentration: 1mM", "value": "1 ± 0.073"}, {"measurement": "NP40-soluble protein abundance", "setting": "concentration: 2mM", "value": "0.937 ± 0.035"}, {"measurement": "NP40-soluble protein abundance", "setting": "concentration: 4mM", "value": "0.919 ± 0.095"}, {"measurement": "NP40-soluble protein abundance", "setting": "concentration: 6mM", "value": "0.9 ± 0.095"}, {"measurement": "NP40-soluble protein abundance", "setting": "concentration: 8mM", "value": "0.891 ± 0.11"}, {"measurement": "NP40-soluble protein abundance", "setting": "concentration: 10mM", "value": "0.872 ± 0.067"}]}
{"target": "UniProt Q9NVM4 and related entries", "values": [{"measurement": "NP40-soluble protein abundance", "setting": "concentration: 0.1mM", "value": "1.07 ± 0.025"}, {"measurement": "NP40-soluble protein abundance", "setting": "concentration: 0.5mM", "value": "1.02 ± 0.029"}, {"measurement": "NP40-soluble protein abundance", "setting": "concentration: 1mM", "value": "0.98767 ± 0.0005"}, {"measurement": "NP40-soluble protein abundance", "setting": "concentration: 2mM", "value": "1.01 ± 0.068"}, {"measurement": "NP40-soluble protein abundance", "setting": "concentration: 4mM", "value": "0.963 ± 0.055"}, {"measurement": "NP40-soluble protein abundance", "setting": "concentration: 6mM", "value": "0.942 ± 0.05"}, {"measurement": "NP40-soluble protein abundance", "setting": "concentration: 8mM", "value": "0.936 ± 0.047"}, {"measurement": "NP40-soluble protein abundance", "setting": "concentration: 10mM", "value": "0.913 ± 0.07"}]}
{"target": "NIPSNAP3A (UniProt Q9UFN0)", "values": [{"measurement": "NP40-soluble protein abundance", "setting": "concentration: 0.1mM", "value": "1.06 ± 0.017"}, {"measurement": "NP40-soluble protein abundance", "setting": "concentration: 0.5mM", "value": "1 ± 0.041"}, {"measurement": "NP40-soluble protein abundance", "setting": "concentration: 1mM", "value": "0.896 ± 0.031"}, {"measurement": "NP40-soluble protein abundance", "setting": "concentration: 2mM", "value": "0.901 ± 0.062"}, {"measurement": "NP40-soluble protein abundance", "setting": "concentration: 4mM", "value": "0.9361 ± 0.0045"}, {"measurement": "NP40-soluble protein abundance", "setting": "concentration: 6mM", "value": "0.86 ± 0.034"}, {"measurement": "NP40-soluble protein abundance", "setting": "concentration: 8mM", "value": "0.857 ± 0.057"}, {"measurement": "NP40-soluble protein abundance", "setting": "concentration: 10mM", "value": "0.816 ± 0.078"}]}
{"target": "ASF1B (UniProt Q9NVP2)", "values": [{"measurement": "NP40-soluble protein abundance", "setting": "concentration: 0.1mM", "value": "1.01 ± 0.082"}, {"measurement": "NP40-soluble protein abundance", "setting": "concentration: 0.5mM", "value": "0.932 ± 0.11"}, {"measurement": "NP40-soluble protein abundance", "setting": "concentration: 1mM", "value": "0.859 ± 0.02"}, {"measurement": "NP40-soluble protein abundance", "setting": "concentration: 2mM", "value": "0.86 ± 0.071"}, {"measurement": "NP40-soluble protein abundance", "setting": "concentration: 4mM", "value": "0.886 ± 0.014"}, {"measurement": "NP40-soluble protein abundance", "setting": "concentration: 6mM", "value": "0.788 ± 0.0082"}, {"measurement": "NP40-soluble protein abundance", "setting": "concentration: 8mM", "value": "0.782 ± 0.11"}, {"measurement": "NP40-soluble protein abundance", "setting": "concentration: 10mM", "value": "0.811 ± 0.11"}]}
